The assay concerns P388 leukemia ip, CD2F1 mice, survival T/C. Nature of the assay: NCI In Vivo Anticancer Drug Screen. Data for tumor model P388 Leukemia (intraperitoneal) in CD2F1 (CDF1) mice. The following applies: T/C endpoint: median survival time, higher T/C = longer survival.
Setting [1] is: dose: 200.0 mg/kg/injection, schedule: Q01DX009 (ip), vehicle: Klucel (hydroxypropylcellulose) (HPC).
Where [2] appears, read: dose: 100.0 mg/kg/injection, schedule: Q01DX009 (ip), vehicle: saline with Tween-80.
Setting [3] is: dose: 200.0 mg/kg/injection, schedule: Q01DX009 (ip), vehicle: saline with Tween-80.
The mark [4] stands for this setting: dose: 200.0 mg/kg/injection, schedule: Q01DX005 (ip), vehicle: Klucel (hydroxypropylcellulose) (HPC).
[5] abbreviates: dose: 50.0 mg/kg/injection, schedule: Q01DX009 (ip), vehicle: saline with Tween-80.
The mark [6] stands for this setting: dose: 200.0 mg/kg/injection, schedule: Q01DX001 (ip), vehicle: saline with Tween-80.
Where [7] appears, read: dose: 400.0 mg/kg/injection, schedule: Q01DX001 (ip), vehicle: saline with Tween-80.

We go through 16 compounds from PubChem BioAssay AID330 (DTP/NCI, 2004).

The list does not hold the whole screen: it gathers tests that were run many times, whatever their T/C, doses with no T/C, and many T/C values between a quarter and a half above the control. Other doses and runs of a compound stand elsewhere. T/C gives the treated animals as a percentage of the vehicle group. Some entries give survivors of the animals treated and no T/C: the source holds a T/C of zero for them, seemingly a mark for toxic or unscored doses. Some survivor counts are full or nearly so, which does not show that the dose was tolerated: the source hardly ever lists a survival T/C far under the control, and the zero likely stands for such cases as well. Counts of survivors are from the toxicity check (mostly the fifth day) where no day follows; animals may have died later. Schedules are NCI's codes, taken here to give the interval after Q, in days (D) or hours (H), and the number of doses after X. Some entries were tested several times; their values stand side by side, smallest first. For survival time, this PubChem deposit counts one and a half times the control or more as active, and values a quarter to a half above the control carry no call in these data; other NCI protocols may use other cut-offs.

In the case of `CN1CCCC(O)(C(=O)c2ccccc2)C1` (configuration not stated), the survivor count (dose: 400.0 mg/kg/injection, schedule: Q04DX003 (ip), vehicle: Klucel (hydroxypropylcellulose) (HPC)) is 2 of 6.

Regarding `O=C1C(Cl)=C(NCC2CCCN3CCCCC23)C(=O)c2ccccc21` (configuration not stated), under “dose: 200.0 mg/kg/injection, schedule: Q01DX005 (ip), vehicle: saline”, the survivor count is on record as 0 of 6.

In the case of `O=C(Cc1ccccc1)c1ccc(C(F)(F)F)cc1`, the survivor count under setting [1] is 6 of 6.

On to `CCCN(CCC)c1nc2ccc(NC(=O)OCC)cc2s1`, for which the survivor count is 1 of 6 under setting [2] and 0 of 6 under setting [3].

For `CC(C)CCCC(C)C1CCC2C3CCC4CC(=O)C(C5(O)C(=O)Nc6ccccc65)CC4(C)C3CCC12C` (configuration not stated), the survivor count is 6 of 6 (dose: 25.0 mg/kg/injection, schedule: Q01DX009 (ip), vehicle: Klucel (hydroxypropylcellulose) (HPC)); 6 of 6 (dose: 50.0 mg/kg/injection, schedule: Q01DX009 (ip), vehicle: Klucel (hydroxypropylcellulose) (HPC)); 6 of 6 (dose: 100.0 mg/kg/injection, schedule: Q01DX009 (ip), vehicle: Klucel (hydroxypropylcellulose) (HPC)).

For the compound `CCCCN(CCCC)CC1CC(C(C)(C)C)CCC1O` (configuration not stated), under setting [4], the survivor count is 1 of 6.

Turning to `O=C1NC(=O)C(CCC[n+]2ccccc2)(c2ccccc2)C(=O)N1`, under setting [3], the survivor count is recorded as 0 of 6.

Take `CC1CN(C(=O)Nc2ccc(Cl)c(Cl)c2)CC(C)O1` (configuration not stated): the survivor count is listed as 5 of 6 under setting [5] and 5 of 6 under setting [2].

Consider `O=C(CO)N(O)c1ccc(Cl)cc1`, for which the survivor count (dose: 200.0 mg/kg/injection, schedule: Q01DX009 (ip), vehicle: water) is reported as 0 of 6.

As for `O=NN(CCCl)C(=O)Oc1c(Cl)cc(Cl)cc1Cl`, the T/C is 141 % of control (dose: 12.5 mg/kg/injection, schedule: Q01DX001 (ip), vehicle: saline with Tween-80) and 146 % of control (dose: 25.0 mg/kg/injection, schedule: Q01DX001 (ip), vehicle: saline with Tween-80). The survivor count by setting is: (dose: 100.0 mg/kg/injection, schedule: Q01DX001 (ip), vehicle: saline with Tween-80) 3 of 5 and 5 of 5; (dose: 150.0 mg/kg/injection, schedule: Q01DX001 (ip), vehicle: saline with Tween-80) 2 of 5; under setting [6], 0 of 5; under setting [7], 0 of 5.

As for `O=C(O)c1ccc2c3c(ccc(C(=O)O)c13)CC2`, the survivor count under setting [1] is recorded as 1 of 6.

With `O=C1C=C(O)C(=O)C(CC2=C(O)C(=O)C=C(O)C2=O)=C1O`, the survivor count (dose: 100.0 mg/kg/injection, schedule: Q01DX005 (ip), vehicle: Klucel (hydroxypropylcellulose) (HPC)) is 0 of 6, 3 of 6, 5 of 6 and the survivor count under setting [4] was 0 of 6.

Take `O=C(CBr)c1ccc(F)cc1`: the survivor count (dose: 25.0 mg/kg/injection, schedule: Q01DX009 (ip), vehicle: saline with Tween-80) is recorded as 3 of 6; the survivor count under setting [5] is listed as 2 of 6; the survivor count (dose: 100.0 mg/kg/injection, schedule: Q04DX003 (ip), vehicle: saline with Tween-80) is 5 of 6.

`CC1(C)N=C(N)N=C(N)N1c1ccc(OCCOc2ccc(S(=O)(=O)F)cc2)c(Cl)c1`: the survivor count (dose: 200.0 mg/kg/injection, schedule: Q04DX003 (ip), vehicle: saline with Tween-80) is recorded as 5 of 6; the survivor count (dose: 300.0 mg/kg/injection, schedule: Q04DX003 (ip), vehicle: saline with Tween-80) is on record as 1 of 6; the survivor count (dose: 400.0 mg/kg/injection, schedule: Q04DX003 (ip), vehicle: saline with Tween-80) is 6 of 6.

`NSc1ccccn1`: the survivor count runs as follows: under setting [6], 0 of 6; under setting [7], 1 of 6.

Take `S=C1NCC(c2ccccc2)(c2ccccc2)N1`: the survivor count (dose: 25.0 mg/kg/injection, schedule: Q04DX003 (ip), vehicle: Klucel (hydroxypropylcellulose) (HPC)) is listed as 2 of 6 and the survivor count (dose: 50.0 mg/kg/injection, schedule: Q04DX003 (ip), vehicle: Klucel (hydroxypropylcellulose) (HPC)) is reported as 2 of 6.
